We go through two substances from article PMC8229658 (Viruses, 2021).

Chains of the proteins cited; added tags and fusions are not shown.
UniProt P03496: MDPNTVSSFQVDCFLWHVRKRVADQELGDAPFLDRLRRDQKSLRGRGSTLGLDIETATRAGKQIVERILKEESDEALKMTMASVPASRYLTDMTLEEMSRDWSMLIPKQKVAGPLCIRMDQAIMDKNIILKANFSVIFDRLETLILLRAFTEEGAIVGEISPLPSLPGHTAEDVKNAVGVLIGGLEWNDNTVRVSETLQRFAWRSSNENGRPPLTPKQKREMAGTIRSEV
UniProt Q9Y230: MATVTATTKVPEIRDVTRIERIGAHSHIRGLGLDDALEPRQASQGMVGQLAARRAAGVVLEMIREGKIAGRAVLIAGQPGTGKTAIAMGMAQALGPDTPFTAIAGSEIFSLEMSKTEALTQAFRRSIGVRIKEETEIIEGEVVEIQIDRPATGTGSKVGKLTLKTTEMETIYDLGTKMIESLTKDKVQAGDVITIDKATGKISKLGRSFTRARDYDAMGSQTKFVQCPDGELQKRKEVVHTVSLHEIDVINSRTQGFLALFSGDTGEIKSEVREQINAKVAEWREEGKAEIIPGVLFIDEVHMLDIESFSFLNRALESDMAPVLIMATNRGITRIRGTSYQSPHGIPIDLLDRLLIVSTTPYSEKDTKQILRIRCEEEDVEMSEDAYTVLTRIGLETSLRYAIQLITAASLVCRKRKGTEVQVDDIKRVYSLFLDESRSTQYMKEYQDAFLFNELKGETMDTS
UniProt Q9Y265: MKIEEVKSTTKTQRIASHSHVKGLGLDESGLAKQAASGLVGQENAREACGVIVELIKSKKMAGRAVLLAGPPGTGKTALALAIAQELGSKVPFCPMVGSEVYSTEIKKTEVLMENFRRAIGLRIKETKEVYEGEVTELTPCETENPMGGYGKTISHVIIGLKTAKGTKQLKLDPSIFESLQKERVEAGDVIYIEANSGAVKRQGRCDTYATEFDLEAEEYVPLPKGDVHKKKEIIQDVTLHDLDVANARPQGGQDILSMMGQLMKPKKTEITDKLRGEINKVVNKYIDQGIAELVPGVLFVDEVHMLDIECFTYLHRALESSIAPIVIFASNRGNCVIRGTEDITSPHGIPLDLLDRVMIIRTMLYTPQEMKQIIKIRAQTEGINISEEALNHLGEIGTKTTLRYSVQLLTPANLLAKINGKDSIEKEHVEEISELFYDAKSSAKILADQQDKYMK

Assay in all cases: co-IP
The target in experiment [1] is Flag-tagged NS1 protein of influenza A/PR/8/34 (PR8) virus (influenza A virus A/PR/8/34 (PR8)) (UniProt P03496).
Experiment [2] has as its target HA-tagged RuvBL2 (human) (UniProt Q9Y230).
Experiment [3] addresses HA-tagged RuvBL1 (UniProt Q9Y265).

No constants are given. Whether binding was seen depends on the method and setting. Binding seen in cells or lysates may run through a third protein. Some binding calls cover weakened binding; strength is not graded here.

Consider “HA-tagged RuvBL1 (from UniProt Q9Y265 1-456)”, for which the binding entry in experiment [1] was “binds”.
Consider “Flag-tagged NS1 protein of influenza A/PR/8/34 (PR8) virus (from UniProt P03496 1-230)”, for which the binding result in experiment [2] and in experiment [3] was “binds” each time.
